The results in this text go back to PMC7413564, “Phase separation of Arabidopsis EMB1579 controls transcription, mRNA splicing, and development” (PLoS Biology, 2020).

These are yes or no findings as the source states them, for the method shown. Some entries that bind do so weakly or less than the wild type. Where a sequence is shown, tags or fusion partners need not be part of it.

The target in the experiment is T1, recombinant EMB1579-6×His protein (Arabidopsis thaliana) (UniProt F4IS91).
T1 sequence: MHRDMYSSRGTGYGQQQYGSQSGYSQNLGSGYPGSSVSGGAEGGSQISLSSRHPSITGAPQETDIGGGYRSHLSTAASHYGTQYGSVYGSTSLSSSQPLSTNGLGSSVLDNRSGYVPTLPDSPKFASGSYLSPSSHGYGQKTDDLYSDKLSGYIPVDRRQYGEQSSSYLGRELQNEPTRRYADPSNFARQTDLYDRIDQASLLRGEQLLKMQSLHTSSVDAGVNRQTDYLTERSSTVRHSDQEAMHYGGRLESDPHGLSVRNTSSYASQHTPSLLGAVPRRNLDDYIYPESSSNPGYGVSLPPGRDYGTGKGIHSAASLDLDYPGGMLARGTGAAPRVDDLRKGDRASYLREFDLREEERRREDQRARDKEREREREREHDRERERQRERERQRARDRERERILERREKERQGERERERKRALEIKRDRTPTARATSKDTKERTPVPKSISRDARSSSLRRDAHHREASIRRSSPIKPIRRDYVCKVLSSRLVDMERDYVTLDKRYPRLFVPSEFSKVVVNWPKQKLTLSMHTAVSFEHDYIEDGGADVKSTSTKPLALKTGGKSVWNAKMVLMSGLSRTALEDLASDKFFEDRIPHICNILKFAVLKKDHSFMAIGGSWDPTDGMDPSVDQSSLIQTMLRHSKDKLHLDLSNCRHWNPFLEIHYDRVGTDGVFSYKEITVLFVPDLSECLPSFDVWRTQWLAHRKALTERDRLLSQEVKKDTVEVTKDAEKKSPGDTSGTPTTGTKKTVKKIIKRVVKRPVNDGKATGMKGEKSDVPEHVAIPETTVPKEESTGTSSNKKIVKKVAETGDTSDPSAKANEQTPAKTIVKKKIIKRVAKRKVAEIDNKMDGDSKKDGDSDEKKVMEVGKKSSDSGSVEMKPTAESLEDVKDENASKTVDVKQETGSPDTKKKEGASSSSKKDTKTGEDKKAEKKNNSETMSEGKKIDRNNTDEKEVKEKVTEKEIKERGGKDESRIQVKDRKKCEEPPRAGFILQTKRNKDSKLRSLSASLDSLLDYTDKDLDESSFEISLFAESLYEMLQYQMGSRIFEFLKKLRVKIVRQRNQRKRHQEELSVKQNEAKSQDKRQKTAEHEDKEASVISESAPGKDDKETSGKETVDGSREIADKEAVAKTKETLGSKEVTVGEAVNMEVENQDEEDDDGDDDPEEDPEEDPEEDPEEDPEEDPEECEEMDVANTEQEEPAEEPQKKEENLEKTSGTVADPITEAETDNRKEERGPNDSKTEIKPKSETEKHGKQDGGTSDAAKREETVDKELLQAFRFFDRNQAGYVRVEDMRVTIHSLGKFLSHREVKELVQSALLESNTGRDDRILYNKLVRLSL
In words: recruitment into condensates from a root extract (confocal fluorescence microscopy); EMB1579 dialysed 1 hour with total protein extract of Arabidopsis roots expressing RFP-MSI4 in P buffer (25 mM Tris-HCl pH 8.0, 100 mM KCl, 2 mM DTT, 100 mg/ml PEG 3350); extract without EMB1579 as control; only the target purified.

B1: red fluorescent protein (RFP)-MSI4 (protein, UniProt O22607 1-507)
chain: MESDEAAAVSPQATTPSGGTGASGPKKRGRKPKTKEDSQTPSSQQQSDVKMKESGKKTQQSPSVDEKYSQWKGLVPILYDWLANHNLVWPSLSCRWGPQLEQATYKNRQRLYLSEQTDGSVPNTLVIANCEVVKPRVAAAEHISQFNEEARSPFVKKYKTIIHPGEVNRIRELPQNSKIVATHTDSPDVLIWDVETQPNRHAVLGAANSRPDLILTGHQDNAEFALAMCPTEPFVLSGGKDKSVVLWSIQDHITTIGTDSKSSGSIIKQTGEGTDKNESPTVGPRGVYHGHEDTVEDVAFSPTSAQEFCSVGDDSCLILWDARTGTNPVTKVEKAHDADLHCVDWNPHDDNLILTGSADNTVRLFDRRKLTANGVGSPIYKFEGHKAAVLCVQWSPDKSSVFGSSAEDGLLNIWDYDRVSKKSDRAAKSPAGLFFQHAGHRDKVVDFHWNASDPWTIVSVSDDCETTGGGGTLQIWRMSDLIYRPEEEVVAELEKFKSHVMTCASKP
In the case of B1, the binding result is listed as “binds”.
